This passage reports isolated yield and isolated mass results from US9745349B2 (JAPAN SCIENCE AND TECHNOLOGY AGENCY, priority 2012, dated 2017).

The data set can be described thus: general procedure: Fmoc solid-phase peptide synthesis; 2-chlorotrityl chloride resin; N,N'-diisopropylcarbodiimide / 1-hydroxybenzotriazole; HATU/DIPEA for cyclisatio. Particulars: whole synthesis; for isolated yield: scale of the general procedure 0.034 mmol.

“cyclo-D-[Ala-Leu-Val-Phe-Phe] (ALVFF; cyclic, D-amino acids; cyclopeptide)” gave an isolated yield of 1.3%. The substance cyclo-D-[Lys-Ala-Val-Phe-Phe] displayed an isolated yield of 1.8%. In the case of cyclo-D-[Lys-Leu-Ala-Phe-Phe], the isolated yield is listed as 2.5%. Same read-out and setting: then cyclo-D-[Lys-Leu-Val-(1-Nal)-Phe], with 21%; and cyclo-D-[Lys-Leu-Val-(2-bi-Ph)Ala-Phe], with 3.0%. On the same count and under the same terms, as for cyclo-D-[Lys-Leu-Val-(3-bi-Ph)Ala-Phe], the figure is 2.7%.

With “cyclo-D-[Lys-Leu-Val-(4-(2-Py)-Ph)Ala-Phe]”, the isolated yield was determined as 2.2%. Same read-out and setting: as for “cyclo-D-[Lys-Leu-Val-(4-(3-Py)-Ph)Ala-Phe]”, the figure is 1.3%; as for “cyclo-D-[Lys-Leu-Val-(4-(3-phenol)-Ph)Ala-Phe]”, 1.6%; as for “cyclo-D-[Lys-Leu-Val-(4-(4-Py)-Ph)Ala-Phe]”, 2.2%. Same read-out and setting: then “cyclo-D-[Lys-Leu-Val-(4-(5-pyrimidine)-Ph)Ala-Phe]”, with 0.4%; and cyclo-D-[Lys-Leu-Val-(4-bi-Ph)Ala-Phe], with 1.9%; and cyclo-D-[Lys-Leu-Val-Ala-Phe], with 0.4%. Turning to cyclo-D-[Lys-Leu-Val-Phe(βPh)-Phe], the isolated yield is 10.9%.

For cyclo-D-[Lys-Leu-Val-Phe-Ala], the isolated yield is reported as 2.2%. Regarding cyclo-D-[Lys-Leu-Val-Phe-Phe], the isolated yield came to 5.2%. As to cyclo-L-[Lys-Leu-Val-Phe-Phe], the isolated mass was 0.31 mg and the isolated yield is given as 1.4%.
